IC50 data for one compound are collected here from patent publication EP0107208A1, “1,1,2-Triphenyl-but-1-ene derivatives, process for their preparation and their use as medicines” (Klinge Pharma GmbH, priority 1982, dated 1984).

For orientation: IC50 means the point on the concentration scale where inhibition reaches its midpoint. Low values mean inhibition by little substance, high ones a need for much substance.

The target in the assay is T1, Estradiolrezeptor (Oryctolagus cuniculus, UniProt G1SML6).
T1 construct: Das Uteruscytosol von weiblichen, präpubertären, weißen 2 kg schweren Kaninchen (Neuseeländer); from tissue; host or cells: uterus cytosol of female prepubertal New Zealand white rabbits
T1 sequence (G1SML6 1-598): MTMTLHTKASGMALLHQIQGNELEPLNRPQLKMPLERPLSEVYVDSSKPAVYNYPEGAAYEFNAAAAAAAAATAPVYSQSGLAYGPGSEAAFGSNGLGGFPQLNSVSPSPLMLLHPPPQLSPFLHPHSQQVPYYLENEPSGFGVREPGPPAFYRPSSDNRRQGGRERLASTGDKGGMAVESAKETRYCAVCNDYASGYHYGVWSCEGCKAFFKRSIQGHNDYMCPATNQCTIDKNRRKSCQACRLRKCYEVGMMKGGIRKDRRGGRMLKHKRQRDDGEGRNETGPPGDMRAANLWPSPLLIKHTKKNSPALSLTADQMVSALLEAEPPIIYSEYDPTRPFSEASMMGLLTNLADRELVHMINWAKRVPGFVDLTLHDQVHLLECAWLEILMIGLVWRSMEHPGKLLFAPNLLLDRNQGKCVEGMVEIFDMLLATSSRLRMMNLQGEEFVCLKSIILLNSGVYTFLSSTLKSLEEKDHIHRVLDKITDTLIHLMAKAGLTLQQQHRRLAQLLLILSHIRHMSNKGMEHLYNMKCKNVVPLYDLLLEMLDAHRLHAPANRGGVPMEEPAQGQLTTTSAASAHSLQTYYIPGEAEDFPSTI
As to the kind of experiment: Binding affinity to the estradiol receptor: displacement of [3H]-estradiol in rabbit uterus cytosol. The arrangement: species or system Kaninchen (Neuseeländer). The source says: Die Messung der Eindungsaffinität zum Estradiolrezeptor erfolgte nach der Eethode von N. Devleeschouwer, G. Leclercq, A. Danguy und J. C. Heuson LEurop. J. Cancer, 14 ,721 - 723 (197o)].
Testsubstanz verschiedener Konzentration inkubiert.Die Bindungsaffinität zum Estradiolrezeptor wird ausgedrückt durch die aen. […] Testsubstanz, welche eine 5C-prcz.
In general terms: Displacement assays read how much labelled ligand stays bound in the presence of the test substance.

Molecules are shown by their SMILES.

`CC/C(=C(\c1ccccc1)c1ccc(OCCN(C)C)cc1)c1ccccc1` [Tamoxifen, (Z)-1-[4'-(2-Dimetrylaminoethcxy)phenyl]-1,2-diphenyl-but-1-en, reference compound] registered an IC50 of 250 nM.
